According to article PMC8905163:
No constants are given. Whether binding was seen depends on the method and setting. In cells and extracts the contact can be indirect. For some assays here: A result given as binding can be weak or reduced; the word gives no strength. Tags and fused reporters may be left off the sequences shown.

How the values were obtained:
[1] = molecular target: HA-Sd_N (N-terminal half of Scalloped) (Drosophila); experiment: co-IP; S2R+ cells co-transfected with pUAST plasmids and Actin-GAL4; lysed in RIPA buffer with PMSF 48 h after transfection; standard co-immunoprecipitation; which protein was precipitated not given
[2] = molecular target: HA-Sd_C (C-terminal part of Scalloped) (Drosophila); experiment: as above

binding [1]: binds
binding [2]: no binding
B1: Myc-Sna (Snail), expressed in S2R+ cells (protein, UniProt P08044 1-390)
chain: MAANYKSCPLKKRPIVFVEERLPQTEALALTKDSQFAQDQPQDLSLKRGRDEETQDYQQPEPKRDYVLNLSKTPERNSSSSSNSCLLSPPVEAQDYLPTEIHMRGLTAGTTGYTTATPTTINPFQSAFVMAAGCNPISALWSSYQPHLAAFPSPASSMASPQSVYSYQQMTPPSSPGSDLETGSEPEDLSVRNDIPLPALFHLFDEAKSSSSGASVSSSSGYSYTPAMSASSASVAANHAKNYRFKCDECQKMYSTSMGLSKHRQFHCPAAECNQEKKTHSCEECGKLYTTIGALKMHIRTHTLPCKCPICGKAFSRPWLLQGHIRTHTGEKPFQCPDCPRSFADRSNLRAHQQTHVDVKKYACQVCHKSFSRMSLLNKHSSSNCTITIA
